# Reference: article PMC12040169 (PLOS Biology, 2025)
# This is one part of the list.
# System: T1, CTL2-GFP (C. trachomatis L2/434/Bu, GFP-expressing)
# T1 construct: L2/434/Bu, GFP-expressing
# Set-up: species or system HeLa; Intracellular C. trachomatis growth in HeLa cells, bulk GFP fluorescence relative to DMSO
# Details: bulk GFP, single well; 28.5 h, 10 µM; inhibitor
row,Compound,% of control remaining
1,O=C(O)c1ccc(S(=O)(=O)c2ccc(O)cc2)cc1 [CBK261411],96.0951%
2,Cn1cc(-c2nccnc2OCc2ccccn2)cn1 [CBK107067],97.4252%
3,CC(=O)N1CCC(C(=O)NCCc2cccc(C)c2)C1 (stereo not shown) [CBK281952],105.135%
4,COc1ccc(NC(=O)c2cc3nc(C)ccc3o2)cc1 [CBK287663],108.831%
5,COc1ccc(S(=O)(=O)NC[C@H]2C[C@@H]3CC[N@]2C[C@@H]3CN2CCCCC2)cc1 [CBK288764],127.861%
6,CCC1C(=O)NCCN1C(=O)Cc1cccc2cccnc12 (stereo not shown) [CBK281728],112.783%
7,c1cncc(Nc2cccc(-c3ccco3)n2)c1 [CBK037742],178.617%
8,Cc1ccc(Nc2nc(N3CCOCC3)nc3nccnc23)cc1 [CBK287664],126.276%
9,CN(C)CCCn1c(=O)[nH]c2sc3c(c2c1=N)CC(C)(C)OC3 [CBK269103],104.744%
10,COc1ccc(NC(=O)N[C@H]2C[C@H]3C(=O)N[C@H](Cc4ccccc4)C(=O)N3C2)cc1 [CBK289227],144.38%
11,CCc1nn(CC(=O)N2CCCC2)c(=O)c2cc3sc(C)cc3n12 [CBK284122],144.227%
12,COc1ccc(C(=O)Nc2c(C)nn(-c3ccccc3)c2C)cc1S(=O)(=O)NC1CC1 [CBK297906],129.601%
13,CN(C)CCN(C)C(=O)c1cc(-c2ccc(Cl)cc2)[nH]n1 [CBK115928],100.215%
14,Cc1cc(NS(=O)(=O)c2cc(C(F)(F)F)cc(C(F)(F)F)c2)n(C)n1 [CBK067261],97.4971%
15,Cc1cc(C)n(CCOc2nonc2N)n1 [CBK025818],105.007%
16,O=C(CSCc1c(Cl)cccc1Cl)Nc1cccc(-c2nnc(-c3ccccc3)o2)c1 [CBK267435],125.902%
17,Cc1cccnc1Nc1ccc(C2CCCN(C(=O)Cc3c[nH]c4ccccc34)C2)nc1 (stereo not shown) [CBK285968],102.03%
18,CCN(CC)C(=O)CN1C(=O)N2CCN=C2c2ccccc21 [CBK283944],119.673%
19,CCOc1ccc(-c2n[nH]c(C(=O)N/N=C3/C(=O)Nc4ccccc43)c2C)cc1 [CBK262889],108.575%
20,Cn1ccnc1C(NC(=O)c1ccccn1)c1ccc(F)c(F)c1 (stereo not shown) [CBK283783],156.184%
21,Cc1cnc(C(=O)N[C@H]2C3CCCCC3[C@@H]2c2ccccc2)cn1 (stereo partly shown) [CBK285125],108.592%
22,CCn1cc(C(=O)N2C[C@H](C(=O)OC)[C@@H](c3ccccc3F)C2)cn1 [CBK283510],136.355%
23,O=C(c1ccc(F)cc1)C1CCN(Cc2ccc3ccccc3c2)CC1 [CBK149122],139.308%
24,Cc1ccccc1CSCCNC(=O)Nc1ccc(Cl)cc1 [CBK268669],124.47%
25,CN1CCC(=NNC(=O)c2cc(O)c(O)c(O)c2)CC1 [CBK262660],141.915%
26,c1cncc(COc2cncc(OC3CCNC3)n2)c1 (stereo not shown) [CBK077419T],124.191%
27,O=S(=O)(c1ccccc1)c1nc(N2CCNCC2)cn2ccnc12 [CBK154875T],154.776%

# Looked up above:
# % of control remaining with `COc1ccc(NC(=O)c2cc3nc(C)ccc3o2)cc1` [CBK287663] reads 108.831%
# % of control remaining with `O=C(c1ccc(F)cc1)C1CCN(Cc2ccc3ccccc3c2)CC1` [CBK149122] reads 139.308%

# Further results follow.

row,Compound,% of control remaining
1,Cc1ccnc(SCC(=O)c2cc(C)n(C3CC3)c2C)n1 [CBK304686],122.688%
2,CCCCN(C)c1c(CC)nc2ccc(C(=O)N3CCNC(=O)C3)cn12 [CBK145460],120.374%
3,CC(=O)Nc1ccc(-c2nc3ccc(-c4nc5ccc(NC(C)=O)cc5[nH]4)cc3[nH]2)cc1 [CBK261165],107.009%
4,CC(=O)Nc1nc(-c2cc3ccccc3oc2=O)cs1 [CBK287312],101.396%
5,CC(C)CC12CN3CCN(CC(C3)/C1=N\N=C1/C3CN4CCN(C3)CC1(CC(C)C)C4)C2 [CBK265036],86.3601%
6,O=S(=O)(Nc1nnn[nH]1)c1cccc2nsnc12 [CBK062379],132.021%
7,CN(C)S(=O)(=O)c1ccc(C(=O)Nc2ccc(N3CCOCC3)c(Cl)c2)cc1 [CBK267383],156.401%
8,Cc1cc(CN2CCCC2)cc(C)c1O [CBK028736C],99.1609%
9,COCOc1ccc(-c2ncc(OC)nc2NC(=O)c2cc3ccccc3s2)cc1 [CBK145250],113.384%
10,COc1cccc(Oc2nccnc2-c2ccsc2)c1 [CBK106762],97.842%
11,COCc1cccc(-c2ncc(OC)nc2NC(=O)c2c(C)noc2C)c1 [CBK145237],92.3675%
12,O=C(c1cccc(C(F)(F)F)c1)N1CCN(C(=O)c2ccc3c(c2)CCC3)CC1 [CBK298300],160.084%
13,CCC(C(=O)Nc1nccs1)N(C)Cc1c(C)nn(C(C)C)c1C (stereo not shown) [CBK307402],106.526%
14,COc1ccc(-c2cc(C(=O)Nc3nc4ccc(S(C)(=O)=O)cc4s3)c3ccccc3n2)cc1 [CBK033551],110.835%
15,O=C(O)c1cnc(NCC2CCCCCC2)[nH]c1=O [CBK023792],90.8644%
16,CCN(CCO)c1ccc(Nc2nc(Br)cn3ccnc23)cc1 [CBK037475],150.641%
17,O=C(c1cnc2ccccc2n1)N1CCC(F)CC1 [CBK200264],180.355%
18,CC(=O)NCC(=O)N1CCC2(CC1)CC(=O)c1cc(Br)ccc1O2 [CBK156447],89.4302%
19,COc1ccc(-c2nc(NC(=O)C3CCC(OC)CC3)cnc2-c2ccc(F)cc2)cc1 (stereo not shown) [CBK037004],124.19%
20,COCCn1c(CO)nnc1[C@H]1C[C@H](NC(=O)c2ccc(F)cc2F)C1 [CBK306665],155.647%
21,O=C(CSc1nc[nH]n1)Nc1ccc(-c2nc3ccccc3s2)cc1 [CBK267146],167.304%
22,CCC(=O)N1CCCC1c1nc(C)c2c(n1)N(Cc1ccc(F)cc1)CCC2 (stereo not shown) [CBK286247],127.171%
23,Cc1nccn1CCNC(=O)c1c2c(nn1C)CCCC2 [CBK281857],120.565%
24,N/C(=N\OCC(=O)Nc1ccc(-n2cnnn2)cc1)c1nonc1N [CBK265331],114.588%
25,O=C(c1cccnc1)C1CCN(C(=O)c2ccccc2F)CC1 [CBK283853],105.81%
26,CCC(=O)N1CCCC1c1nc(C)c2c(n1)N(Cc1ccccc1OC)CCC2 (stereo not shown) [CBK285642],105.572%
27,COC(=O)C(=O)N1CC[C@H]2NC(=O)N(Cc3ccccc3)C(=O)[C@H]21 [CBK289292],125.272%

row,Compound,% of control remaining
1,CCCCn1nc2[nH]c(=O)cc(C(F)F)c2c1C [CBK288011],88.2809%
2,O=C(CN1CCCC2(CCN(C(=O)c3ccoc3)C2)C1)Nc1ccc(F)c(Cl)c1 (stereo not shown) [CBK132822],96.4771%
3,COc1ccc(CN2CCC(N3CCc4ccccc4C3)CC2)cc1OCc1ccccc1 [CBK264629G],122.755%
4,O=C(O)c1cccc(C(=O)c2cccc(C(=O)O)c2)c1 [CBK263933],121.806%
5,COc1ccc(C2C=C(C)Nc3nc(N)nn32)cc1 (stereo not shown) [CBK287906],133.387%
6,O=C(CC(NCCO)C(=O)O)Nc1cccc(C(F)(F)F)c1 (stereo not shown) [CBK267065],94.7612%
7,Cc1ccnc(SCC(=O)Nc2sc3c(c2C(=O)Nc2ccccc2)CCCC3)n1 [CBK266348],111.19%
8,CC(C)CC1OC(NC2CCCCCC2)=NC1=O (stereo not shown) [CBK074901],118.342%
9,Cc1ccc(NC(=O)Cn2cnc3c2c(=O)n(C)c(=O)n3C)c(C)c1 [CBK133276],144.922%
10,CC1(C)CC(NC(=O)COc2ccc([N+](=O)[O-])cc2)CC(C)(C)N1 [CBK266806],136.275%
11,Cc1nc([N+](=O)[O-])cn1CCC(=O)Nc1ccccc1Oc1ccccc1Cl [CBK298319],135.139%
12,COc1ccc(C(=O)N2CCc3ccccc32)c(OC)n1 [CBK200281],100.002%
13,Cc1c(Cl)c([N+](=O)[O-])nn1CC(=O)N1CCN(Cc2ccccc2)CC1 [CBK261720],112.365%
14,CCCN1CCc2c(sc3nc(SCC(=O)c4ccccc4)n(-c4ccccc4)c(=O)c23)C1 [CBK262587],114.281%
15,CCOC(=O)C1CCN(CCOc2ccc3ccccc3c2)CC1 [CBK270128C],112.073%
16,Cc1ccc(CN2CC[C@H]3NC(=O)c4ccccc4OCC/C=C/C[C@H]3C2)cn1 [CBK292056],135.02%
17,CCCC(=O)N1CCC(c2nc(Cc3cccs3)no2)C1 (stereo not shown) [CBK283034],118.849%
18,CN1CCN(C(=O)CCC2CCCO2)C(c2ccccc2)C1 (stereo not shown) [CBK282015],130.299%
19,FC(F)(F)c1cccc(OCCN2CCOCC2)c1 [CBK269669C],130.466%
20,Cc1c(-c2ccnc(N)n2)nnn1-c1ccc(Cl)cc1Cl [CBK018733],90.3269%
21,CN(C)C(=O)c1ccc(-c2ccc3c(c2)COC(C2CCN(C(=O)CC(C)(C)c4ccccc4)CC2)O3)cc1 (stereo not shown) [CBK149765],94.9424%
22,Cc1ccc(OC(C)C(=O)N(C)c2ccccc2)cc1 (stereo not shown) [CBK268645],79.7105%
23,Cc1cc(O)c(C(=O)Nc2cccc(Cl)c2)c(=O)n1Cc1ccco1 [CBK291143],111.843%
24,COc1ccc(C(=O)N2CCN(Cc3cc(OC)ccc3OC)CC2)cc1 [CBK263032],118.86%
25,COc1ccc(C(=O)C(OC(=O)c2cc(O)nc3ccccc23)c2ccccc2)cc1 (stereo not shown) [CBK264083],104.07%

# A draw from above in order of molecular weight, rising.
row,Compound,% of control remaining
23,Cc1cc(O)c(C(=O)Nc2cccc(Cl)c2)c(=O)n1Cc1ccco1 [CBK291143],111.843%
24,COc1ccc(C(=O)N2CCN(Cc3cc(OC)ccc3OC)CC2)cc1 [CBK263032],118.86%
7,Cc1ccnc(SCC(=O)Nc2sc3c(c2C(=O)Nc2ccccc2)CCCC3)n1 [CBK266348],111.19%
